Source: paper PMC8142648
Results are given in words; binding and its absence hold for the method and conditions named. Some binding calls cover weakened binding; strength is not graded here.

Amino acid sequences for entries named in this document (tags omitted). A change or cut given only in a name is not applied to a line headed by its entry.
UniProt Q9VDJ9: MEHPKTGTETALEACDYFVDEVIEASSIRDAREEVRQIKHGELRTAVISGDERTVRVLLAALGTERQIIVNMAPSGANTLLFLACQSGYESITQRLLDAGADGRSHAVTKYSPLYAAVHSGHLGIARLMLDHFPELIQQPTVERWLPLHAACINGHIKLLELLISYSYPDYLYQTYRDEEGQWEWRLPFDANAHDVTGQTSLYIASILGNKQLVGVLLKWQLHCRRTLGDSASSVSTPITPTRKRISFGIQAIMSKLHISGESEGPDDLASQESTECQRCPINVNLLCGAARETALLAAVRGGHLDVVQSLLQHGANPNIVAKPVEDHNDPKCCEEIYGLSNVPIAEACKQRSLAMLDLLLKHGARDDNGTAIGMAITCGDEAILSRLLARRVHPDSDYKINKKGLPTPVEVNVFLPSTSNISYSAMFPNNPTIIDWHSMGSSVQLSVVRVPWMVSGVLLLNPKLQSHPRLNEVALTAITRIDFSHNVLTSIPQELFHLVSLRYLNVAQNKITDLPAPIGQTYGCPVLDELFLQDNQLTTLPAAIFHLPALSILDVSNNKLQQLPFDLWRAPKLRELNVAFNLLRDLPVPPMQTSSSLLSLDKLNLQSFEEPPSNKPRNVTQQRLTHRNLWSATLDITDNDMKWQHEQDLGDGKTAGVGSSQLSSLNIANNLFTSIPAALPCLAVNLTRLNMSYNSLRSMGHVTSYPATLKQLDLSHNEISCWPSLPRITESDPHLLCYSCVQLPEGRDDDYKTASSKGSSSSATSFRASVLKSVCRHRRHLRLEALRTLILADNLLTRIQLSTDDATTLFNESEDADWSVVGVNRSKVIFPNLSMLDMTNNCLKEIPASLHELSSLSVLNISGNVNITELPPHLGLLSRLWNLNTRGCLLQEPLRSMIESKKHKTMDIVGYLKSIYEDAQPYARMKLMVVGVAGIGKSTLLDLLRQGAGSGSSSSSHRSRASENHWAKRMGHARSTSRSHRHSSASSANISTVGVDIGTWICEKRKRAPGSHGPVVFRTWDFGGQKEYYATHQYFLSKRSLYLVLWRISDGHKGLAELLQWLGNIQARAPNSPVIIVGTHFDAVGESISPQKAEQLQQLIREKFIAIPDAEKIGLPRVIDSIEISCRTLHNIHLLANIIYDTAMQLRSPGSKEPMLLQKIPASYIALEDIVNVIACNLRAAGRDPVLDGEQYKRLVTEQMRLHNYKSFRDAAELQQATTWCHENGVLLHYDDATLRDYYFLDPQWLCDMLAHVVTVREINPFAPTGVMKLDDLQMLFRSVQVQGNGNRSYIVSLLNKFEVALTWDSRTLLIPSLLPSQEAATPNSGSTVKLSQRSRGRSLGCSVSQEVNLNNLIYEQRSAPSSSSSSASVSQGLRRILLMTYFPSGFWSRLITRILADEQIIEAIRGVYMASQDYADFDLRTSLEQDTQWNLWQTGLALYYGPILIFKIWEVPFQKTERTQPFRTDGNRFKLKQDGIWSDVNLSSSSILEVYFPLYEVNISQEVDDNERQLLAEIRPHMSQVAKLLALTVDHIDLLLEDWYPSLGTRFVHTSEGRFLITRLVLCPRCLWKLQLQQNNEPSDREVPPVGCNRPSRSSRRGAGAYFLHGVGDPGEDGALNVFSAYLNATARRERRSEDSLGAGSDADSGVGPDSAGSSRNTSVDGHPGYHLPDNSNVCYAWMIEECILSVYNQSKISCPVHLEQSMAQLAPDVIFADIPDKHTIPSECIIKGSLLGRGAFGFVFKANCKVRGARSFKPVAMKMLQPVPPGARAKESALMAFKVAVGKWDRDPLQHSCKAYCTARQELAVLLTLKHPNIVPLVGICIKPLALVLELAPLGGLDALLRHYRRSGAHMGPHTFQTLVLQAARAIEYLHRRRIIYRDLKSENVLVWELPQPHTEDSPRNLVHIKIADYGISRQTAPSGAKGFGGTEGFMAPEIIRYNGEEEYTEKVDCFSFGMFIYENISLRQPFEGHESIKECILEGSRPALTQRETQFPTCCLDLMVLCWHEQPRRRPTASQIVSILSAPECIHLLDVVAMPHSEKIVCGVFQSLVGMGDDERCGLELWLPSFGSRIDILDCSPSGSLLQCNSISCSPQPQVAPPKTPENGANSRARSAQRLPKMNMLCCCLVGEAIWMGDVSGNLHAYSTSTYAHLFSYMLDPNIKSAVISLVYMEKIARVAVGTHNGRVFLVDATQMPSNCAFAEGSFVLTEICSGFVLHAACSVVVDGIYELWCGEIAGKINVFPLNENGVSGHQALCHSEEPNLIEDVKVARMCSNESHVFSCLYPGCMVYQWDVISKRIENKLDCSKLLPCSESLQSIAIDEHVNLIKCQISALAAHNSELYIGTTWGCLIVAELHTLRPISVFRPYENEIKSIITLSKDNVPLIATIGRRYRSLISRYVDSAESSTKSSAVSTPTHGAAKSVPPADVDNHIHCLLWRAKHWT

These substances were tested against endogenous Drosophila Lrrk protein tagged with HA (Lrrk^HA knockin) (Drosophila) (UniProt Q9VDJ9) (assay: native gel or EMSA; native polyacrylamide gel of fly heads (10-day-old flies with one copy of HA-tagged Lrrk, with or without a Lrrk transgene), western blotting for HA; multimer to monomer ratio).

binding, binds:
Drosophila Lrrk-Y1383C (UAS-Lrrk^Y1383C transgene) (from UniProt Q9VDJ9 1-2445) (enzyme)
Drosophila Lrrk-I1915T (UAS-Lrrk^I1915T transgene) (from UniProt Q9VDJ9 1-2445) (enzyme)
Drosophila Lrrk-G1914S (UAS-Lrrk^G1914S transgene) (from UniProt Q9VDJ9 1-2445) (enzyme)
endogenous Drosophila Lrrk protein tagged with HA (Lrrk^HA knockin) (from UniProt Q9VDJ9 1-2445) (enzyme)
Drosophila Lrrk-R1069C (UAS-Lrrk^R1069C transgene) (from UniProt Q9VDJ9 1-2445) (enzyme)
wild type Drosophila Lrrk (UAS-Lrrk^wt transgene) (from UniProt Q9VDJ9 1-2445) (enzyme)
